# Reference: the supplement of paper PMC8728848
# This is one part of the list.
# Tests used:
# Assay in all cases: glycan array binding signal (z-score within array); higher = stronger binding
# Settings in all cases: glycan notation: IUPAC condensed, linker removed
# [1] = biological target: Gal(b1-3)GlcNAc(b1-6)GalNAc
# Method in brief: (§1)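 Glycan array binding is given as a within-array Z-score, which can be read as non-binding when negative. The arrays, 3228 of them, came from the Consortium for Functional Glycomics database and were retained only where the protein sequence was available. Z-scores were averaged across arrays of the same protein sequence at different concentrations or buffers and across linkers.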
# [2] = biological target: Gal(b1-3)GlcNAc(b1-6)[Gal(b1-3)]GalNAc
# Method in brief: as §1
# [3] = biological target: Gal(b1-3)GlcNAc6S
# Method in brief: as §1
# [4] = biological target: Gal(b1-3)[Fuc(a1-4)]GlcNAc
# Method in brief: as §1
# [5] = biological target: Gal(b1-3)[Fuc(a1-4)]GlcNAc(b1-2)Man
# Method in brief: as §1
# [6] = biological target: Gal(b1-3)[Fuc(a1-4)]GlcNAc(b1-2)Man(a1-3)[Gal(b1-3)[Fuc(a1-4)]GlcNAc(b1-2)Man(a1-6)]Man(b1-4)GlcNAc(b1-4)[Fuc(a1-6)]GlcNAc
# Method in brief: as §1
# [7] = biological target: Gal(b1-3)[Fuc(a1-4)]GlcNAc(b1-3)Gal(b1-3)[Fuc(a1-4)]GlcNAc
# Method in brief: as §1
# [8] = biological target: Gal(b1-3)[Fuc(a1-4)]GlcNAc(b1-3)Gal(b1-4)[Fuc(a1-3)]GlcNAc
# Method in brief: as §1
# [9] = biological target: Gal(b1-3)[Fuc(a1-4)]GlcNAc(b1-6)GalNAc
# Method in brief: as §1
# [10] = biological target: Gal(b1-3)[GlcNAc(b1-6)]GalNAc
# Method in brief: as §1
# [11] = biological target: Gal(b1-3)[Neu5Ac(a2-6)]GalNAc
# Method in brief: as §1
# [12] = biological target: Gal(b1-3)[Neu5Ac(a2-6)]GlcNAc(b1-4)Gal(b1-4)Glc
# Method in brief: as §1
# [13] = biological target: Gal(b1-3)[Neu5Ac(b2-6)]GalNAc
# Method in brief: as §1
# [14] = biological target: Gal(b1-4)Gal
# Method in brief: as §1
# [15] = biological target: Gal(b1-4)GalNAc(a1-3)[Fuc(a1-2)]Gal(b1-4)GlcNAc
# Method in brief: as §1
# [16] = biological target: Gal(b1-4)GalNAc(b1-3)[Fuc(a1-2)]Gal(b1-4)GlcNAc
# Method in brief: as §1
# [17] = biological target: Gal(b1-4)Glc
# Method in brief: as §1
# [18] = biological target: Gal(b1-4)Glc6S
# Method in brief: as §1
# [19] = biological target: Gal(b1-4)GlcNAc
# Method in brief: as §1
# [20] = biological target: Gal(b1-4)GlcNAc(a1-6)Gal(b1-4)GlcNAc
# Method in brief: as §1
# [21] = biological target: Gal(b1-4)GlcNAc(b1-2)Man
# Method in brief: as §1
# [22] = biological target: Gal(b1-4)GlcNAc(b1-2)Man(a1-3)Man(b1-4)GlcNAc(b1-4)GlcNAc
# Method in brief: as §1
# [23] = biological target: Gal(b1-4)GlcNAc(b1-2)Man(a1-3)[Gal(b1-4)GlcNAc(b1-2)Man(a1-6)]Man(b1-4)GlcNAc(b1-4)GlcNAc
# Method in brief: as §1
# [24] = biological target: Gal(b1-4)GlcNAc(b1-2)Man(a1-3)[Gal(b1-4)GlcNAc(b1-2)Man(a1-6)]Man(b1-4)GlcNAc(b1-4)[Fuc(a1-6)]GlcNAc
# Method in brief: as §1
# [25] = biological target: Gal(b1-4)GlcNAc(b1-2)Man(a1-3)[Gal(b1-4)GlcNAc(b1-2)Man(a1-6)][Gal(b1-4)GlcNAc(b1-4)]Man(b1-4)GlcNAc(b1-4)[Fuc(a1-6)]GlcNAc
# Method in brief: as §1
# [26] = biological target: Gal(b1-4)GlcNAc(b1-2)Man(a1-3)[Gal(b1-4)GlcNAc(b1-2)Man(a1-6)][GlcNAc(b1-4)]Man(b1-4)GlcNAc(b1-4)[Fuc(a1-6)]GlcNAc
# Method in brief: as §1
# [27] = biological target: Gal(b1-4)GlcNAc(b1-2)Man(a1-3)[GlcNAc(b1-2)Man(a1-6)]Man(b1-4)GlcNAc(b1-4)GlcNAc
# Method in brief: as §1
# [28] = biological target: Gal(b1-4)GlcNAc(b1-2)Man(a1-3)[GlcNAc(b1-4)][Gal(b1-4)GlcNAc(b1-2)Man(a1-6)]Man(b1-4)GlcNAc(b1-4)GlcNAc
# Method in brief: as §1
# [29] = biological target: Gal(b1-4)GlcNAc(b1-2)Man(a1-3)[Man(a1-6)]Man(b1-4)GlcNAc(b1-4)GlcNAc
# Method in brief: as §1
# [30] = biological target: Gal(b1-4)GlcNAc(b1-2)Man(a1-6)Man(b1-4)GlcNAc(b1-4)GlcNAc
# Method in brief: as §1
# [31] = biological target: Gal(b1-4)GlcNAc(b1-2)Man(a1-6)[GlcNAc(b1-2)Man(a1-3)]Man(b1-4)GlcNAc(b1-4)GlcNAc
# Method in brief: as §1
# [32] = biological target: Gal(b1-4)GlcNAc(b1-2)Man(a1-6)[Man(a1-3)]Man(b1-4)GlcNAc(b1-4)GlcNAc
# Method in brief: as §1
# [33] = biological target: Gal(b1-4)GlcNAc(b1-2)[Gal(b1-4)GlcNAc(b1-4)]Man(a1-3)[Gal(b1-4)GlcNAc(b1-2)Man(a1-6)]Man(b1-4)GlcNAc(b1-4)GlcNAc
# Method in brief: as §1
# [34] = biological target: Gal(b1-4)GlcNAc(b1-2)[Gal(b1-4)GlcNAc(b1-4)]Man(a1-3)[Gal(b1-4)GlcNAc(b1-2)[Gal(b1-4)GlcNAc(b1-6)]Man(a1-6)]Man(b1-4)GlcNAc(b1-4)GlcNAc
# Method in brief: as §1
# [35] = biological target: Gal(b1-4)GlcNAc(b1-2)[Gal(b1-4)GlcNAc(b1-4)]Man(a1-3)[GlcNAc(b1-4)][Gal(b1-4)GlcNAc(b1-2)Man(a1-6)]Man(b1-4)GlcNAc(b1-4)GlcNAc
# Method in brief: as §1
# [36] = biological target: Gal(b1-4)GlcNAc(b1-2)[Gal(b1-4)GlcNAc(b1-4)]Man(a1-3)[GlcNAc(b1-4)][Gal(b1-4)GlcNAc(b1-2)[Gal(b1-4)GlcNAc(b1-6)]Man(a1-6)]Man(b1-4)GlcNAc(b1-4)GlcNAc
# Method in brief: as §1
# [37] = biological target: Gal(b1-4)GlcNAc(b1-2)[Gal(b1-4)GlcNAc(b1-6)]Man(a1-6)[Gal(b1-4)GlcNAc(b1-2)Man(a1-3)]Man(b1-4)GlcNAc(b1-4)GlcNAc
# Method in brief: as §1
binder,measurement,setting,value
"SUN4 (Saccharomyces cerevisiae), P53616 (protein) MGSSHHHHHHSSGLVPRGSHNGSIYGDLADFSGPYEKFEDGTIPCGQFPSGQGVIPISWLDEGGWSGVENTDTSTGGSCKEGSYCSYACQPGMSKTQWPSDQPSDGRSIGGLLCKDGYLYRSNTDTDYLCEWGVDAAYVVSELSNDVAICRTDYPGTENMVIPTYVQAGDSLPLTVVDQDTYYTWQGLKTSAQYYVNNAGISVEDACVWGSSSSGVGNWAPLNFGAGSSDGVAYLSLIPNPNNGNALNFNVKIVAADDSSTVNGECIYENGSFSGGSDGCTVSVTAGKAKFVLYN",glycan array binding signal (z-score),[1],-0.048
same,glycan array binding signal (z-score),[2],0.101
same,glycan array binding signal (z-score),[3],0.534
same,glycan array binding signal (z-score),[4],-0.633
same,glycan array binding signal (z-score),[5],0.706
same,glycan array binding signal (z-score),[6],0.905
same,glycan array binding signal (z-score),[7],-0.522
same,glycan array binding signal (z-score),[8],0.705
same,glycan array binding signal (z-score),[9],0.835
same,glycan array binding signal (z-score),[10],-0.857
same,glycan array binding signal (z-score),[11],-0.568
same,glycan array binding signal (z-score),[12],-0.066
same,glycan array binding signal (z-score),[13],0.289
same,glycan array binding signal (z-score),[14],0.339
same,glycan array binding signal (z-score),[15],-0.574
same,glycan array binding signal (z-score),[16],-0.726
same,glycan array binding signal (z-score),[17],-0.225
same,glycan array binding signal (z-score),[18],-0.03
same,glycan array binding signal (z-score),[19],-0.163
same,glycan array binding signal (z-score),[20],-0.089
same,glycan array binding signal (z-score),[21],1.8
same,glycan array binding signal (z-score),[22],-1.26
same,glycan array binding signal (z-score),[23],-0.31
same,glycan array binding signal (z-score),[24],0.829
same,glycan array binding signal (z-score),[25],-0.052
same,glycan array binding signal (z-score),[26],-1.24
same,glycan array binding signal (z-score),[27],-0.784
same,glycan array binding signal (z-score),[28],-0.726
same,glycan array binding signal (z-score),[29],0.072
same,glycan array binding signal (z-score),[30],-1.01
same,glycan array binding signal (z-score),[31],-0.75
same,glycan array binding signal (z-score),[32],-0.198
same,glycan array binding signal (z-score),[33],0.116
same,glycan array binding signal (z-score),[34],-0.984
same,glycan array binding signal (z-score),[35],0.208
same,glycan array binding signal (z-score),[36],-0.203
same,glycan array binding signal (z-score),[37],-0.167

# Shown tab-delimited: part of the list above.
binder	measurement	setting	value
SUN4 (Saccharomyces cerevisiae), P53616 (protein) MGSSHHHHHHSSGLVPRGSHNGSIYGDLADFSGPYEKFEDGTIPCGQFPSGQGVIPISWLDEGGWSGVENTDTSTGGSCKEGSYCSYACQPGMSKTQWPSDQPSDGRSIGGLLCKDGYLYRSNTDTDYLCEWGVDAAYVVSELSNDVAICRTDYPGTENMVIPTYVQAGDSLPLTVVDQDTYYTWQGLKTSAQYYVNNAGISVEDACVWGSSSSGVGNWAPLNFGAGSSDGVAYLSLIPNPNNGNALNFNVKIVAADDSSTVNGECIYENGSFSGGSDGCTVSVTAGKAKFVLYN	glycan array binding signal (z-score)	[1]	-0.048
same	glycan array binding signal (z-score)	[19]	-0.163
